The supplement of paper PMC12819154, “High-throughput peptide-centric local stability assay extends protein–ligand identification to membrane proteins, tissues and bacteria” (Nature Structural & Molecular Biology, 2025)
The list shows a part of the results. Small differences around the control level are noise.

Protein sequences, listed by entry. Tags and fused reporters are not part of them. Lines headed by an entry give the natural chain unless they say otherwise; changes in a name come on top.
UniProt Q8BTT6: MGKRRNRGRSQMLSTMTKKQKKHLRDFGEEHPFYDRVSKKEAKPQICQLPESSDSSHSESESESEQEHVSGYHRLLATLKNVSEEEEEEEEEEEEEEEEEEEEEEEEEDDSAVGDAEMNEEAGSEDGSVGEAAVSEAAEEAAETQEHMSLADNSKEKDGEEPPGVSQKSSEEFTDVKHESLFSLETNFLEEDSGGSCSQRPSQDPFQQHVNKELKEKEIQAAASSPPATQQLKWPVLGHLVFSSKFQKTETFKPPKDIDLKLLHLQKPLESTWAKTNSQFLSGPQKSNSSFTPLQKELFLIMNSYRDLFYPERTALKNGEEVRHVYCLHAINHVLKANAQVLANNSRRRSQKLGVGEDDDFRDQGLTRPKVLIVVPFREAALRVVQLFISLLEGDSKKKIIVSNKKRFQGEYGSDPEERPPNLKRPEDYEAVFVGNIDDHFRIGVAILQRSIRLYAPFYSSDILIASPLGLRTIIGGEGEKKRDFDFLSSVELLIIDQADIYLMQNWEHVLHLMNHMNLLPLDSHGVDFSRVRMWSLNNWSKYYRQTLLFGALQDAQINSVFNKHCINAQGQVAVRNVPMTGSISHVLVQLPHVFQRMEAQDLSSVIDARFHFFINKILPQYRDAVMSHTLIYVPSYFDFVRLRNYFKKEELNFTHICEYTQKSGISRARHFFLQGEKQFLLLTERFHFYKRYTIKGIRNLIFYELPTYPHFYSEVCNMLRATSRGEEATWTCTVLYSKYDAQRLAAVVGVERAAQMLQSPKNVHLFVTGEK
UniProt Q8BMK0: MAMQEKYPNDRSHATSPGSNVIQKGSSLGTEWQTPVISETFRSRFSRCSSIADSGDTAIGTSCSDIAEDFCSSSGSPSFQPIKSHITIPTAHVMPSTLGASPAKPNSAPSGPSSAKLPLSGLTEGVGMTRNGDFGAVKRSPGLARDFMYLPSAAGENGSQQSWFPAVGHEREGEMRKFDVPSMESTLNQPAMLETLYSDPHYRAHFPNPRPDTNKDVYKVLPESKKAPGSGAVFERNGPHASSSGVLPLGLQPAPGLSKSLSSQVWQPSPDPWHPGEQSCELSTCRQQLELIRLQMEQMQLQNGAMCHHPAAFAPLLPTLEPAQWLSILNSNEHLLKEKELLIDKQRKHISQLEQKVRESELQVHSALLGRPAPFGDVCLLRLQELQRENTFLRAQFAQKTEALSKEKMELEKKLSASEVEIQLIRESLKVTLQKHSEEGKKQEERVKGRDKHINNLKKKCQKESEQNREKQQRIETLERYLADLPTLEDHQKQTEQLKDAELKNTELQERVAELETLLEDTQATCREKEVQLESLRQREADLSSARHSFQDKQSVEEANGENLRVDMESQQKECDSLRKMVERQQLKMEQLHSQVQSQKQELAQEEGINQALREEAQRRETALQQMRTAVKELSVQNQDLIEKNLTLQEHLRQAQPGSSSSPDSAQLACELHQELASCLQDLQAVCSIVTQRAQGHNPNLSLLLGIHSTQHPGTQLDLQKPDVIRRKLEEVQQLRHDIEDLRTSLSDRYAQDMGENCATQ
UniProt Q8BTQ0: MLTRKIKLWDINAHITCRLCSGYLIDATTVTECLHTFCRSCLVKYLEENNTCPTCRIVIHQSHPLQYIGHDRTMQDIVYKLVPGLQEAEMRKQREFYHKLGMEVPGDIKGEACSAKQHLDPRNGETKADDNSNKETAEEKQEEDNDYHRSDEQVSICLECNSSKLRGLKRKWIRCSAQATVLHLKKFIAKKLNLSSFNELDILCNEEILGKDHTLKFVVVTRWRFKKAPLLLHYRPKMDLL
UniProt Q8BK30: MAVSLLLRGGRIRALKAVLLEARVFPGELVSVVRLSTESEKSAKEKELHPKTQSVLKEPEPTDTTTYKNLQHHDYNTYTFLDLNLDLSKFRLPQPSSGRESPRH
UniProt Q8BIG7: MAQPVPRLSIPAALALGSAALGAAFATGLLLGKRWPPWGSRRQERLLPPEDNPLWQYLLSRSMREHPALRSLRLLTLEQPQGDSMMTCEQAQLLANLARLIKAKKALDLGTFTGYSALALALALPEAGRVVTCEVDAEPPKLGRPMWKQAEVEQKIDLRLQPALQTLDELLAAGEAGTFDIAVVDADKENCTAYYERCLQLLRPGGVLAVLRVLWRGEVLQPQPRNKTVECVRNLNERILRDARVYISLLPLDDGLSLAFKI
UniProt Q8BM39: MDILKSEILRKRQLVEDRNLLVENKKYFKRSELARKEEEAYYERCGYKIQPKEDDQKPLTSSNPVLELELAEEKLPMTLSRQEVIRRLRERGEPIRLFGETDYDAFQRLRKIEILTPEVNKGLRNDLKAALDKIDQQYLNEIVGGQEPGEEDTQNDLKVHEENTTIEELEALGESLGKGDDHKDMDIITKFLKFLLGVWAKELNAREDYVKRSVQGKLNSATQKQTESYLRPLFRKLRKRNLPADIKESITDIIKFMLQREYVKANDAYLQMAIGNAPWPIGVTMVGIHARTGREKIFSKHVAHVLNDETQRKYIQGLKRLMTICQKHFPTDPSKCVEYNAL
UniProt Q8BUH8: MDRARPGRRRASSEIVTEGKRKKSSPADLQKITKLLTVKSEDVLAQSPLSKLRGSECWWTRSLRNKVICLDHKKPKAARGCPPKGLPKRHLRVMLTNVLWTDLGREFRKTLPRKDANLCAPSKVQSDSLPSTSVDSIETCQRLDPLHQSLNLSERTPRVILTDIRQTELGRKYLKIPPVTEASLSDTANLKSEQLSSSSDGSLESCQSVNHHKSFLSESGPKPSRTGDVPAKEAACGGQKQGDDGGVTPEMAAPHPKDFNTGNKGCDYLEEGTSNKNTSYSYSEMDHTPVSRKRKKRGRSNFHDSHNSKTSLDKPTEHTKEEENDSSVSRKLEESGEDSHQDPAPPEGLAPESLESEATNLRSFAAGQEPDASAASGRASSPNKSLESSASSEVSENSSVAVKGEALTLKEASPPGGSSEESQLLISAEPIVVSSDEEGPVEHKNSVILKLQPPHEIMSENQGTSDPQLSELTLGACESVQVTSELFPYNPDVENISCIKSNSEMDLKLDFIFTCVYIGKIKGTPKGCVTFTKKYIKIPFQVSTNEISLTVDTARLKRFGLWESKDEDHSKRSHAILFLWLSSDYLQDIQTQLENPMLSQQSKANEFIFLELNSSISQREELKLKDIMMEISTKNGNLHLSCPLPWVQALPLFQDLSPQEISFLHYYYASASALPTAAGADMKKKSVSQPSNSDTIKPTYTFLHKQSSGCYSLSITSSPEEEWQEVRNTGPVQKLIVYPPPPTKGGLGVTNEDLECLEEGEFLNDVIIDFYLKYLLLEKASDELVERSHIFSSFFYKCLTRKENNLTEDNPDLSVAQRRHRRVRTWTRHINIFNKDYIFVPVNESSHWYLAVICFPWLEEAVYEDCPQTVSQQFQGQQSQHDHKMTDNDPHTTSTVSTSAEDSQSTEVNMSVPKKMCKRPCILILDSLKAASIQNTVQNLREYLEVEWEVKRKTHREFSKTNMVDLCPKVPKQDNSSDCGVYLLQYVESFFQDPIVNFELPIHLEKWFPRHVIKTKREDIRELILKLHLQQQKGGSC
UniProt Q8BM85: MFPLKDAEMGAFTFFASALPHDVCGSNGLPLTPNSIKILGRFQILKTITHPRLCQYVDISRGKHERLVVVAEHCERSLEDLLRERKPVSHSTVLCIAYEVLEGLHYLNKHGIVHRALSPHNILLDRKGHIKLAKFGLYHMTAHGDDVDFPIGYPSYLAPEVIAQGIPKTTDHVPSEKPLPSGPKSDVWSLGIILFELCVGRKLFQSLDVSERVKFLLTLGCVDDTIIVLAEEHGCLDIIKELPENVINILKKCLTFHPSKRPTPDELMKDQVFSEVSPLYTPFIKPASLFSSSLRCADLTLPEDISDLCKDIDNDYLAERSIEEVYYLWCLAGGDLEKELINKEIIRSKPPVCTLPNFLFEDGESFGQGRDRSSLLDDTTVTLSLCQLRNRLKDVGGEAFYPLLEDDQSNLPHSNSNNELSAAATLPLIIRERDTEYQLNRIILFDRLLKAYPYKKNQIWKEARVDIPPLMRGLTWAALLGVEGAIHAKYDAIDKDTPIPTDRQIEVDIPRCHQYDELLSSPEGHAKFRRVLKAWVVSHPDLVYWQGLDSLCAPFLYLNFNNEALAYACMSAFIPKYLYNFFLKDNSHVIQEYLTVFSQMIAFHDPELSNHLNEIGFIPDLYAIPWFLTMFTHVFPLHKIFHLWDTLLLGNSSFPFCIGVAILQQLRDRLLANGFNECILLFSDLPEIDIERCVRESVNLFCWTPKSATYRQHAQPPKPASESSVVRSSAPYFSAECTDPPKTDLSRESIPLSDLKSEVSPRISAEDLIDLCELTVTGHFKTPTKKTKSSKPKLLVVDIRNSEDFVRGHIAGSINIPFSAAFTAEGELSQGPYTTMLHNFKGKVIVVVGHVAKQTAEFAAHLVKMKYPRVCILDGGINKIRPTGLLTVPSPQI
UniProt Q8BKT3: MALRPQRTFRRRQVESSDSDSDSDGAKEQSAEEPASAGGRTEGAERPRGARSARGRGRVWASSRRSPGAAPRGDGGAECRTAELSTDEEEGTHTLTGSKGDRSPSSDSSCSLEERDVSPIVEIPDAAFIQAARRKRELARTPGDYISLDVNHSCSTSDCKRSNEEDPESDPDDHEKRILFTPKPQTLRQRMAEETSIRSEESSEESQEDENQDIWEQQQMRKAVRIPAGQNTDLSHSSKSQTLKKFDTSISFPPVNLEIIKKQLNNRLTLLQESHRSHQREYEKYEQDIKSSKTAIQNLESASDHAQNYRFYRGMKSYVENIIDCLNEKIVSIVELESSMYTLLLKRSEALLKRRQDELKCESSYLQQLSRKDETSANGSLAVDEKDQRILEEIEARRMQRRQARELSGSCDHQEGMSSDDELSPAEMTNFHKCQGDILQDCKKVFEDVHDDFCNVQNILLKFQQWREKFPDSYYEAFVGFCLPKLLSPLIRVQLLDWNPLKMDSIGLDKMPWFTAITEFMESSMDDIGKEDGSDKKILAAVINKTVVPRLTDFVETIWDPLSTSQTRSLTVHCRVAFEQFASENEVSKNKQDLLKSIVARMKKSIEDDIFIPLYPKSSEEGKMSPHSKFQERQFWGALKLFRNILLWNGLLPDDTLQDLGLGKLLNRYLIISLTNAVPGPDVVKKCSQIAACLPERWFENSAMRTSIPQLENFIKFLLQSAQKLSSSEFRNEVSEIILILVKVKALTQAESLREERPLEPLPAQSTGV
UniProt Q8BMK4: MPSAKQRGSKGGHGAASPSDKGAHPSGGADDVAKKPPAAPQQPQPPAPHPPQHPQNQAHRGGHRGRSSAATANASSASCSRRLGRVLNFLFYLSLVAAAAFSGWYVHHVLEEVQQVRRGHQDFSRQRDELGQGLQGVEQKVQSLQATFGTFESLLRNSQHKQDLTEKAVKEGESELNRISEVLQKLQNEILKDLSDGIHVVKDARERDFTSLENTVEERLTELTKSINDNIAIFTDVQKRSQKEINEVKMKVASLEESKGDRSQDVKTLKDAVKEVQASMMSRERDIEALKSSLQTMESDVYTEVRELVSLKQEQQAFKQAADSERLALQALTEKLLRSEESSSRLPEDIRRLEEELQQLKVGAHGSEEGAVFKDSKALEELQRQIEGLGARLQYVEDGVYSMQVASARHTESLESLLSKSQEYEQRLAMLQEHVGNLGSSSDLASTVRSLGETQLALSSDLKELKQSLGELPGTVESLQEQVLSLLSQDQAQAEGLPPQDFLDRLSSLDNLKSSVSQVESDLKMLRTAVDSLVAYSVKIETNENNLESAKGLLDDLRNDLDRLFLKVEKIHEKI
UniProt Q8BTE0: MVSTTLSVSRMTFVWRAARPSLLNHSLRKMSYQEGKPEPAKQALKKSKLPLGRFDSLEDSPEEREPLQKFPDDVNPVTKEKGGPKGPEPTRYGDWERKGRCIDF
UniProt Q8BMI3: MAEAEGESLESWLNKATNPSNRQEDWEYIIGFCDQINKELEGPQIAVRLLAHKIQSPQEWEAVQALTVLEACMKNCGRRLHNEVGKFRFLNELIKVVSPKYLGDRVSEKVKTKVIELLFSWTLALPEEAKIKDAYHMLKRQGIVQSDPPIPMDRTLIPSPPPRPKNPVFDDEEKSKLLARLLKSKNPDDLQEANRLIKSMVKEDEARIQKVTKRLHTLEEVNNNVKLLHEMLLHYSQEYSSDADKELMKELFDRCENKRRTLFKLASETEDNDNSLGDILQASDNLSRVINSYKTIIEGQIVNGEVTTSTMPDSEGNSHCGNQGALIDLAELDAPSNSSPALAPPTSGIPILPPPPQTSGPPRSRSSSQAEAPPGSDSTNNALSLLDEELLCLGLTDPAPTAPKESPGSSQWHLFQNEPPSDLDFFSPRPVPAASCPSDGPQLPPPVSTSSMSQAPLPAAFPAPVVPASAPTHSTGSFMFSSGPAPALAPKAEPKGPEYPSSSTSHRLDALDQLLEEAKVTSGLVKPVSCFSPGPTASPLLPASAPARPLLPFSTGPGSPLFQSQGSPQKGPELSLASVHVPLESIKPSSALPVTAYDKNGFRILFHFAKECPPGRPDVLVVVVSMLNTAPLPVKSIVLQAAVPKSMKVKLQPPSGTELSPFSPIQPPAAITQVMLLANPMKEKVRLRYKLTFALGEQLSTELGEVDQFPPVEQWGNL

The targets below were run with CN[C@@H]1C[C@H]2O[C@@](C)([C@@H]1OC)n1c3ccccc3c3c4c(c5c6ccccc6n2c5c31)C(=O)NC4 [staurosporine] (assay: log2 fold change of tryptic peptide abundance, ligand vs vehicle (limited proteolysis) (log2 ratio); higher = more trypsin-susceptible (destabilized)). Conditions: ligand concentration: 20 uM; sample: mouse liver crude lysate; replicate design: treated separately.

Row | Target | log2 fold change
1 | UniProt Q8BP00 (peptide sequence: LKKLPSAVIALQR, peptide start residue: 314) | 0.488
2 | UniProt Q8BP97 (peptide sequence: SSPAHCTGTGAS, peptide start residue: 374) | 0.238
3 | UniProt Q8BTT6 (peptide sequence: ANAQVLANNSR, peptide start residue: 337) | 0.71
4 | UniProt Q8BKN5 (peptide sequence: FTIHSDLNK, peptide start residue: 72) | -0.413
5 | UniProt Q8BIK4 (peptide sequence: HSFDDRYNSR, peptide start residue: 1156) | 0.391
6 | UniProt Q8BMQ2 (peptide sequence: CLLHDSIAR, peptide start residue: 783) | 0.485
7 | UniProt Q8BMK0 (peptide sequence: SHATSPGSNVIQK, peptide start residue: 12) | -0.399
8 | UniProt Q8BTQ0 (peptide sequence: QREFYHK, peptide start residue: 93) | -0.52
9 | UniProt Q8BMS9 (peptide sequence: ILQGPCEQISK, peptide start residue: 246) | 0.696
10 | UniProt Q8BIG4 (peptide sequence: KATEAIDSLR, peptide start residue: 350) | 0.628
11 | UniProt Q8BMA5 (peptide sequence: KVSPTEVALESLHK, peptide start residue: 1144) | -0.32
12 | UniProt Q8BK30 (peptide sequence: EPEPTDTTTYK, peptide start residue: 58) | 0.216
13 | UniProt Q8BTN6 (peptide sequence: ISSVEEPR, peptide start residue: 255) | 0.109
14 | UniProt Q8BS95 (peptide sequence: GDVQNKPSGLWGMLK, peptide start residue: 218) | -0.0828
15 | UniProt Q8BK35 (peptide sequence: LFFVDTGFK, peptide start residue: 86) | -0.706
16 | UniProt Q8BM55 (peptide sequence: VLAFGAKPESSLHTYFPSFLSR, peptide start residue: 351) | 0.415
17 | UniProt Q8BHZ0 (peptide sequence: HLNDESTSK, peptide start residue: 308) | 0.466
18 | UniProt Q8BIG7 (peptide sequence: CLQLLRPGGVLAVLR, peptide start residue: 198) | -0.173

Row | Target | log2 fold change
19 | UniProt Q8BTC1 (peptide sequence: RHEPHVSQQ, peptide start residue: 59) | 0.0224
20 | UniProt Q8BM39 (peptide sequence: KEEEAYYER, peptide start residue: 36) | 0.219
21 | UniProt Q8BUH8 (peptide sequence: LDPLHQSLNLSER, peptide start residue: 143) | 0.369
22 | UniProt Q8BKX7 (peptide sequence: VQELAHDSLIAATR, peptide start residue: 168) | 0.421
23 | UniProt Q8BIR2 (peptide sequence: VASLGTTADAK, peptide start residue: 635) | -0.245
24 | UniProt Q8BT14 (peptide sequence: YPWMAFPR, peptide start residue: 498) | 0.397
25 | UniProt Q8BJU0 (peptide sequence: KALELDPDNDTYKSNLK, peptide start residue: 185) | 0.479
26 | UniProt Q8BM85 (peptide sequence: CHQYDELLSSPEGHAK, peptide start residue: 512) | -0.48
27 | UniProt Q8BSP2 (peptide sequence: TSQQSAILPR, peptide start residue: 276) | -0.17
28 | UniProt Q8BMG7 (peptide sequence: TFLEYLEYEKDALSIR, peptide start residue: 710) | 0.636
29 | UniProt Q8BKT3 (peptide sequence: MAEETSIR, peptide start residue: 191) | 0.267
30 | UniProt Q8BKX1 (peptide sequence: VLDSDGSDRLHMSLQQGK, peptide start residue: 435) | -0.346
31 | UniProt Q8BVE8 (peptide sequence: GIGTPPNTTPIK, peptide start residue: 107) | 0.526
32 | UniProt Q8BL66 (peptide sequence: GKESVSLLEK, peptide start residue: 535) | 0.393
33 | UniProt Q8BMK4 (peptide sequence: LALQALTEK, peptide start residue: 327) | -0.202
34 | UniProt Q8BKW4 (peptide sequence: KFYACSACR, peptide start residue: 59) | 0.162
35 | UniProt Q8BTE0 (peptide sequence: YGDWERK, peptide start residue: 92) | 0.309
36 | UniProt Q8BMI3 (peptide sequence: TLIPSPPPRPK, peptide start residue: 155) | 0.296

Single values from the entries so far:
Under log2 fold change, UniProt Q8BMK4 (peptide sequence: LALQALTEK, peptide start residue: 327) has the entry -0.202
Under log2 fold change, UniProt Q8BKT3 (peptide sequence: MAEETSIR, peptide start residue: 191) has the entry 0.267
